Test results: patent publication EP4818191A1 (PeptiDream Inc., priority 2023, dated 2025)

Assays:
[1] = general procedure: Fmoc solid-phase peptide synthesis; Sieber amide resin; details: whole synthesis, LC/MS UV 225 nm, thioether ring, sequence written open
[2] = general procedure: Fmoc solid-phase peptide synthesis; Cl-Trt(2-Cl) resin; details: conjugation step, LC/MS UV 225 nm, thioether ring, sequence written open

Substance	final purity (method not given) [1]	final purity (method not given) [2]
ClAc-da-Tbg-3Py6CON-Hgl-Meda-Ahp-pHPeG-S-5Inda-HseMe-dk(PEG8c)-Y-MeC	96.0%	–
ClAc-da-Tbg-3Py6CON-Hgl-Meda-Ahp-pHPeG-S-5Inda-HseMe-dk-Y-MeCt	–	99.5%
